Data: the supplement of paper PMC8728848
The list shows a part of the results.

Key:
Test in all cases: glycan array binding signal (z-score within array); higher = stronger binding
Conditions in all cases: glycan notation: IUPAC condensed, linker removed
[1] = molecular target: Gal(b1-3)GalNAc(b1-3)Gal(a1-4)Gal(b1-4)Glc
In short: (§1)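 Glycan array data were curated from 3228 arrays in the Consortium for Functional Glycomics database and kept only where the protein sequence was available. Glycan names were converted to IUPAC-condensed notation, and columns mapping to the same glycan were averaged. The binding signal is a within-array Z-score, averaged across arrays of the same protein sequence at different concentrations or buffers and across linkers. Negative Z-scores can be read as non-binding.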

[2] = molecular target: Gal(b1-3)GalNAc(b1-4)Gal(b1-4)Glc
In short: as §1

[3] = molecular target: Gal(b1-3)GalNAc(b1-4)[Neu5Ac(a2-3)]Gal(b1-4)Glc
In short: as §1

[4] = molecular target: Gal(b1-3)GlcNAc
In short: as §1

[5] = molecular target: Gal(b1-3)GlcNAc(a1-3)Gal(b1-4)GlcNAc
In short: as §1

[6] = molecular target: Gal(b1-3)GlcNAc(a1-6)Gal(b1-4)GlcNAc
In short: as §1

[7] = molecular target: Gal(b1-3)GlcNAc(b1-2)Man
In short: as §1

[8] = molecular target: Gal(b1-3)GlcNAc(b1-2)Man(a1-3)[Gal(b1-3)GlcNAc(b1-2)Man(a1-6)]Man(b1-4)GlcNAc(b1-4)GlcNAc
In short: as §1

[9] = molecular target: Gal(b1-3)GlcNAc(b1-2)Man(a1-3)[Gal(b1-3)GlcNAc(b1-2)Man(a1-6)]Man(b1-4)GlcNAc(b1-4)[Fuc(a1-6)]GlcNAc
In short: as §1

[10] = molecular target: Gal(b1-3)GlcNAc(b1-2)Man(a1-3)[GlcNAc(b1-4)][Gal(b1-3)GlcNAc(b1-2)Man(a1-6)]Man(b1-4)GlcNAc(b1-4)GlcNAc
In short: as §1

[11] = molecular target: Gal(b1-3)GlcNAc(b1-2)[Gal(b1-3)GlcNAc(b1-6)]Man(a1-6)[Gal(b1-3)GlcNAc(b1-2)Man(a1-3)]Man(b1-4)GlcNAc(b1-4)GlcNAc
In short: as §1

[12] = molecular target: Gal(b1-3)GlcNAc(b1-3)Gal(b1-3)GlcNAc
In short: as §1

[13] = molecular target: Gal(b1-3)GlcNAc(b1-3)Gal(b1-4)Glc
In short: as §1

[14] = molecular target: Gal(b1-3)GlcNAc(b1-3)Gal(b1-4)GlcNAc
In short: as §1

[15] = molecular target: Gal(b1-3)GlcNAc(b1-3)Gal(b1-4)GlcNAc(b1-2)Man(a1-3)[Gal(b1-3)GlcNAc(b1-3)Gal(b1-4)GlcNAc(b1-2)Man(a1-6)]Man(b1-4)GlcNAc(b1-4)GlcNAc
In short: as §1

[16] = molecular target: Gal(b1-3)GlcNAc(b1-3)Gal(b1-4)GlcNAc(b1-2)[Gal(b1-3)GlcNAc(b1-3)Gal(b1-4)GlcNAc(b1-6)]Man(a1-6)[Gal(b1-3)GlcNAc(b1-3)Gal(b1-4)GlcNAc(b1-2)Man(a1-3)]Man(b1-4)GlcNAc(b1-4)[Fuc(a1-6)]GlcNAc
In short: as §1

[17] = molecular target: Gal(b1-3)GlcNAc(b1-3)Gal(b1-4)GlcNAc(b1-3)Gal(b1-4)GlcNAc(b1-2)[Gal(b1-3)GlcNAc(b1-3)Gal(b1-4)GlcNAc(b1-3)Gal(b1-4)GlcNAc(b1-6)]Man(a1-6)[Gal(b1-3)GlcNAc(b1-3)Gal(b1-4)GlcNAc(b1-3)Gal(b1-4)GlcNAc(b1-2)Man(a1-3)]Man(b1-4)GlcNAc(b1-4)[Fuc(a1-6)]GlcNAc
In short: as §1

[18] = molecular target: Gal(b1-3)GlcNAc(b1-3)Gal(b1-4)GlcNAc(b1-6)[Gal(b1-3)GlcNAc(b1-3)]Gal(b1-4)Glc
In short: as §1

[19] = molecular target: Gal(b1-3)GlcNAc(b1-3)Gal(b1-4)[Fuc(a1-3)]GlcNAc
In short: as §1

[20] = molecular target: Gal(b1-3)GlcNAc(b1-3)Gal(b1-4)[Fuc(a1-3)]GlcNAc(b1-6)[Gal(b1-3)GlcNAc(b1-3)]Gal(b1-4)Glc
In short: as §1

[21] = molecular target: Gal(b1-3)GlcNAc(b1-3)GalNAc
In short: as §1

[22] = molecular target: Gal(b1-3)GlcNAc(b1-6)Gal(b1-4)GlcNAc
In short: as §1

[23] = molecular target: Gal(b1-3)GlcNAc(b1-6)GalNAc
In short: as §1

[24] = molecular target: Gal(b1-3)GlcNAc(b1-6)[Gal(b1-3)]GalNAc
In short: as §1

[25] = molecular target: Gal(b1-3)GlcNAc6S
In short: as §1

[26] = molecular target: Gal(b1-3)[Fuc(a1-4)]GlcNAc
In short: as §1

[27] = molecular target: Gal(b1-3)[Fuc(a1-4)]GlcNAc(b1-2)Man
In short: as §1

[28] = molecular target: Gal(b1-3)[Fuc(a1-4)]GlcNAc(b1-2)Man(a1-3)[Gal(b1-3)[Fuc(a1-4)]GlcNAc(b1-2)Man(a1-6)]Man(b1-4)GlcNAc(b1-4)[Fuc(a1-6)]GlcNAc
In short: as §1

[29] = molecular target: Gal(b1-3)[Fuc(a1-4)]GlcNAc(b1-3)Gal(b1-3)[Fuc(a1-4)]GlcNAc
In short: as §1

[30] = molecular target: Gal(b1-3)[Fuc(a1-4)]GlcNAc(b1-3)Gal(b1-4)[Fuc(a1-3)]GlcNAc
In short: as §1

[31] = molecular target: Gal(b1-3)[Fuc(a1-4)]GlcNAc(b1-6)GalNAc
In short: as §1

[32] = molecular target: Gal(b1-3)[GlcNAc(b1-6)]GalNAc
In short: as §1

[33] = molecular target: Gal(b1-3)[Neu5Ac(a2-6)]GalNAc
In short: as §1

[34] = molecular target: Gal(b1-3)[Neu5Ac(a2-6)]GlcNAc(b1-4)Gal(b1-4)Glc
In short: as §1

[35] = molecular target: Gal(b1-3)[Neu5Ac(b2-6)]GalNAc
In short: as §1

[36] = molecular target: Gal(b1-4)Gal
In short: as §1

[37] = molecular target: Gal(b1-4)GalNAc(a1-3)[Fuc(a1-2)]Gal(b1-4)GlcNAc
In short: as §1

[38] = molecular target: Gal(b1-4)GalNAc(b1-3)[Fuc(a1-2)]Gal(b1-4)GlcNAc
In short: as §1

B1: HopZSSI-T (Helicobacter pylori), B5Z6D0 (protein)
chain: MGSSHHHHHHSSGLVPRGSHMENLYFQGEDNGFFISAGYQIGEAAQMVKNTGELKKLSDTYENLSNLLTNFNNLNQAVTNASSPSEINAAIDNLKANTQGLTGEKTNSPAYQAVYLALNAAVGLWNVIAYNVQCGPGNSSQQSVTFEGQPGHNSSSINCNLTGYNNGVSGPLSIDNFKQLNQAYQVLQQALKQGVPVLNNTNQKIEVKVTTQTNGQSSKETTTTTTTNDAQTLLQEASKMIDVLTTNCPWVNHNPGQNGGAPWGLIRQECVSGFATEFSAVTSMIKNAQEIVTQAQSLNANQNNQNAPQDFNPYTSADRAFAQNMLNHAQAQAKILELADQMKKDLNTIPSQFITNYLAACRIDGTTPSQGVTNNTWGAGCAYVEETITALNNSLAHFGTQAEQIKQSELLARTILDFRGSLSTLNSTYNSITTTASNTPNSPFLKNLISQSTNPNNPGGLQAVYQVNQSAYSQLLSATQELGHNPFRRIGLISSQT
Q: Which results are given for B1?
A: glycan array binding signal (z-score) [1]: -0.481; glycan array binding signal (z-score) [2]: -0.498; glycan array binding signal (z-score) [3]: 0.199; glycan array binding signal (z-score) [4]: -0.649; glycan array binding signal (z-score) [5]: -0.041; glycan array binding signal (z-score) [6]: -0.467; glycan array binding signal (z-score) [7]: -0.724; glycan array binding signal (z-score) [8]: 0.829; glycan array binding signal (z-score) [9]: 0.625; glycan array binding signal (z-score) [10]: 0.204; glycan array binding signal (z-score) [11]: 0.014; glycan array binding signal (z-score) [12]: -0.42; glycan array binding signal (z-score) [13]: -0.931; glycan array binding signal (z-score) [14]: -0.249; glycan array binding signal (z-score) [15]: -0.169; glycan array binding signal (z-score) [16]: 0.278; glycan array binding signal (z-score) [17]: 0.589; glycan array binding signal (z-score) [18]: -0.499; glycan array binding signal (z-score) [19]: -0.213; glycan array binding signal (z-score) [20]: -0.218; glycan array binding signal (z-score) [21]: -0.174; glycan array binding signal (z-score) [22]: 0.041; glycan array binding signal (z-score) [23]: -0.052; glycan array binding signal (z-score) [24]: -0.549; glycan array binding signal (z-score) [25]: 0.642; glycan array binding signal (z-score) [26]: -0.544; glycan array binding signal (z-score) [27]: 0.292; glycan array binding signal (z-score) [28]: 0.008; glycan array binding signal (z-score) [29]: -0.459; glycan array binding signal (z-score) [30]: -0.632; glycan array binding signal (z-score) [31]: -0.224; glycan array binding signal (z-score) [32]: 1.03; glycan array binding signal (z-score) [33]: -0.197; glycan array binding signal (z-score) [34]: -0.338; glycan array binding signal (z-score) [35]: 0.272; glycan array binding signal (z-score) [36]: 0.639; glycan array binding signal (z-score) [37]: -0.243; glycan array binding signal (z-score) [38]: -0.529
